Experimental data published in publication doi:10.1101/2021.10.12.463977.
Where a chain is given by its changes, count along the chain named. No constants are given. Whether binding was seen depends on the method and setting. Some binding calls cover weakened binding; strength is not graded here. Tags and fused reporters may be left off the sequences shown.

Chains of the proteins cited; added tags and fusions are not shown. Lines headed by an entry give the natural chain unless they say otherwise; changes in a name come on top.
UniProt P39705: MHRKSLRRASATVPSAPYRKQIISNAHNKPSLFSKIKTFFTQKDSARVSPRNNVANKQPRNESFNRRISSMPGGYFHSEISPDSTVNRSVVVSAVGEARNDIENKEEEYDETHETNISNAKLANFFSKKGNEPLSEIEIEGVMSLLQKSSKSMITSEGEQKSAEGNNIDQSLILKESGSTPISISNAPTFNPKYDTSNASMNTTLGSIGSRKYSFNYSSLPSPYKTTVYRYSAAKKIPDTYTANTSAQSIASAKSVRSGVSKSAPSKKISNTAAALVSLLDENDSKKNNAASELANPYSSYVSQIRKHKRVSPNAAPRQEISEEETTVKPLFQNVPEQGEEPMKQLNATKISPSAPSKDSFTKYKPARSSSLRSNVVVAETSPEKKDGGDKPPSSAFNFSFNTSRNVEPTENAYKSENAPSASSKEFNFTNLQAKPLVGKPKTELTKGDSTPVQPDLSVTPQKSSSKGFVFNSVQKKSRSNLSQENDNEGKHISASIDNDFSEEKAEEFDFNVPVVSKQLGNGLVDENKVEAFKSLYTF

Tests used:
Experiment in all cases: two-hybrid
[1] = molecular target: T1, Nup2 MAR K101E, Gal4 DNA binding domain fusion (Saccharomyces cerevisiae) (UniProt P32499)
T1 sequence: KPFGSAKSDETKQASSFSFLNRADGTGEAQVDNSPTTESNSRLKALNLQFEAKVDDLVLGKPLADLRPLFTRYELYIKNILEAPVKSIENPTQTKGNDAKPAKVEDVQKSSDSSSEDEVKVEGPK

[2] = molecular target: T2, mar(89-130), Nup2 amino acids 89-130, two-hybrid bait (Saccharomyces cerevisiae) (UniProt P32499)
T2 sequence: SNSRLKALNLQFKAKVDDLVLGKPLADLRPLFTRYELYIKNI

[3] = molecular target: T3, Nup2 MAR F120Y, Gal4 DNA binding domain fusion (Saccharomyces cerevisiae) (UniProt P32499)
T3 sequence: T1 sequence with E51K, F70Y

| binding [1] | binding [2] | binding [3] | Substance |
| --- | --- | --- | --- |
| no binding | no binding | no binding | Nup60(188-388), Gal4 activation domain fusion (from UniProt P39705 188-388) (domain or fragment) |
| binds |  | binds | full-length Nup60, Gal4 activation domain fusion (from UniProt P39705 1-539) |
